For one molecule, binding results are on record in patent US20240115720A1, “ANTIBODY-PYRROLOBENZODIAZEPINE DERIVATIVE CONJUGATE” (MEMORIAL SLOAN KETTERING CANCER CENTER, priority 2021, published 2024).

Amino acid sequences for entries named in this document (tags omitted). A change or cut given only in a name is not applied to a line headed by its entry.
UniProt Q9NYJ7: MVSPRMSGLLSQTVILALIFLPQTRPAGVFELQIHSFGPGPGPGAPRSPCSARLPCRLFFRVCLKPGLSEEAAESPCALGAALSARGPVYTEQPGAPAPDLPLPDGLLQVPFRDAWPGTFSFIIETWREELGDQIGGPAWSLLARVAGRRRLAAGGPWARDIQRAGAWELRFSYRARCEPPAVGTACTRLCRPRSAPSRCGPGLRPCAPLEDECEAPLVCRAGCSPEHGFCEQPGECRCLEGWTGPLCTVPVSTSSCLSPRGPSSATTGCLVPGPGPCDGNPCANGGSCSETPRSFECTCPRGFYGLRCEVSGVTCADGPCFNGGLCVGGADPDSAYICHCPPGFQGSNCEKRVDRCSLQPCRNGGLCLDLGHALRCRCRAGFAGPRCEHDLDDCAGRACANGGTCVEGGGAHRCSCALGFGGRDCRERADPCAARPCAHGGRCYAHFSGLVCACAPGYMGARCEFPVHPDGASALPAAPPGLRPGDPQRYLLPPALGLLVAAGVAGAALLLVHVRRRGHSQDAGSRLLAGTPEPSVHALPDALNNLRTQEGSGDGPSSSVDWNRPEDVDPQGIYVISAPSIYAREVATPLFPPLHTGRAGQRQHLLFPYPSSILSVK

These are yes or no findings as the source states them, for the method shown. Some entries that bind do so weakly or less than the wild type.

The test addresses Histidine-tagged DLL3 antigen (DLL3-His) (Homo sapiens (Human)) (UniProt Q9NYJ7). Put plainly: Carterra array SPR epitope binning, mAb immobilized, DLL3-His injected.

B1: 2-C8-A (antibody, V domains shown)
VH: EVQLVESGGGLVQPGGSQRLSCAASGFTFSSYWMNWVRQAPGKGLEWVANIKEDGSEKYYVDSVKGRFTISRDNAKNSLYLQMNSLRAEDTAVYYCARDPGWAPFDYWGQGTLVTVSS
VL: DIQMSQSPSSLSASVGDRVTITCRASQGISNYLAWFQQKPGKAPKSLIYAASSLQSGVPSKFSGSGSGTDFTLAISSLQPEDFATYYCQQYNSFPYTFGQGTTLEIK
Regarding B1, the binding result was “binds”.
